Source: PubChem BioAssay AID1665 (Sanford-Burnham Center for Chemical Genomics, 2009)
The other results are listed elsewhere or left out.

Assay: beta-catenin nuclear localization change in HeLa – imaging, HeLa cells, immunofluorescence, high-content, primary screen (AID 1665)
Conditions: HeLa beta-catenin nuclear translocation, measured here: cell count, cytotoxicity flag, at 5 µM
Procedure, shortened: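 Read-out: Nuclear/cytoplasmic beta-catenin signal ratio, % activation | Assay system: Human HeLa cell line | Times: 24 h compound exposure at 37°C, 5% CO2 | Signal: Fluorescence imaging of beta-catenin antibody stain plus DAPI | Dosing: 5 µM primary, 0.02–20 µM confirmation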
For `c1ccc(CN2CCC(Nc3ccccc3)CC2)cc1`, the cell count was 1180 cells. Work on `N#Cc1ccc(C(=O)NCC2(N3CCCCC3)CCCCC2)cc1` yielded a cell count of 1220 cells. Work on `O=C(OC1CN2CCC1CC2)C1c2ccccc2C=Cc2ccccc21` (configuration not stated) yielded a cell count of 550 cells. Molecule `N/C(=N\O)c1c(N)no[n+]1[O-]` has a cell count of 977 cells. `COc1ccc(C(=O)NCC2(N3CCOCC3)CCCCC2)cc1OC` showed a cell count of 1070 cells. `CCCOc1ccc(C)cc1CN(CCCl)CCCl` showed a cell count of 1160 cells. Molecule `COc1cc(OC)cc(C(=O)NCC2(N3CCOCC3)CCCCC2)c1` has a cell count of 1150 cells. With `CCC(CO)(C(=O)OC1CN2CCC1CC2)c1ccccc1` (configuration not stated) the cell count was 1120 cells. Molecule `CC(C)(C)OC(=O)N1CCC(Nc2ccccc2)CC1` has a cell count of 1130 cells. Molecule `CCOc1ncccc1C(=O)NCC1(N2CCOCC2)CCCCC1` has a cell count of 1080 cells. `CN(C)c1ccc(C(=O)NCC2(N3CCCCC3)CCCCC2)cc1` gave a cell count of 1090 cells. For `CCN1CCC(Nc2cccc(F)c2)CC1`, the cell count was 555 cells. Molecule `Fc1ccccc1NC1CCN(Cc2ccccc2)CC1` has a cell count of 1220 cells. For `Cc1ccc(OCC(C)C)c(CN(CCCl)CCCl)c1`, the cell count was 1100 cells. In the case of `COc1ccc(NC2CCN(CCc3ccccc3)CC2)c(OC)c1`, the cell count was 963 cells. With `CCOc1ccc(C)cc1CN(CCCl)CCCl` the cell count was 1130 cells. `N#CC1(Nc2ccccc2)CCN(Cc2ccccc2)CC1` showed a cell count of 1340 cells. With `O=C(OC1CN2CCC1CC2)C1c2ccccc2Oc2ccccc21` (configuration not stated) the cell count was 936 cells. Molecule `O=C(NCC1(N2CCOCC2)CCCCC1)c1cc2ccccc2o1` has a cell count of 1110 cells. With `COc1ccc(C(=O)NCC2(N3CCCCC3)CCCCC2)c(OC)c1OC` the cell count was 1030 cells. Work on `CC(C)c1ccc(NC2CCN(C(=O)OC(C)(C)C)CC2)cc1` yielded a cell count of 1140 cells. `CN(C)c1cccc(C(=O)NCC2(N3CCCCC3)CCCCC2)c1` showed a cell count of 1100 cells. `COc1ccc(CN(CCCl)CCCl)cc1Cl` showed a cell count of 904 cells. `CN1CCN(CCOC(=O)C(O)(c2ccccc2)c2ccccc2)CC1` showed a cell count of 986 cells. Molecule `COc1ccc(NC2CCN(C(=O)OC(C)(C)C)CC2)cc1` has a cell count of 1180 cells. Molecule `N#CC1(Nc2ccccc2)CCN(CCc2ccccc2)CC1` has a cell count of 1350 cells. In the case of `O=C(NCC1(N2CCCCC2)CCCCC1)c1cccc([N+](=O)[O-])c1`, the cell count was 1100 cells.
